Assay [1] addresses T1, CTCF (human (endogenous in 22Rv1)) (UniProt P49711).
T1 sequence: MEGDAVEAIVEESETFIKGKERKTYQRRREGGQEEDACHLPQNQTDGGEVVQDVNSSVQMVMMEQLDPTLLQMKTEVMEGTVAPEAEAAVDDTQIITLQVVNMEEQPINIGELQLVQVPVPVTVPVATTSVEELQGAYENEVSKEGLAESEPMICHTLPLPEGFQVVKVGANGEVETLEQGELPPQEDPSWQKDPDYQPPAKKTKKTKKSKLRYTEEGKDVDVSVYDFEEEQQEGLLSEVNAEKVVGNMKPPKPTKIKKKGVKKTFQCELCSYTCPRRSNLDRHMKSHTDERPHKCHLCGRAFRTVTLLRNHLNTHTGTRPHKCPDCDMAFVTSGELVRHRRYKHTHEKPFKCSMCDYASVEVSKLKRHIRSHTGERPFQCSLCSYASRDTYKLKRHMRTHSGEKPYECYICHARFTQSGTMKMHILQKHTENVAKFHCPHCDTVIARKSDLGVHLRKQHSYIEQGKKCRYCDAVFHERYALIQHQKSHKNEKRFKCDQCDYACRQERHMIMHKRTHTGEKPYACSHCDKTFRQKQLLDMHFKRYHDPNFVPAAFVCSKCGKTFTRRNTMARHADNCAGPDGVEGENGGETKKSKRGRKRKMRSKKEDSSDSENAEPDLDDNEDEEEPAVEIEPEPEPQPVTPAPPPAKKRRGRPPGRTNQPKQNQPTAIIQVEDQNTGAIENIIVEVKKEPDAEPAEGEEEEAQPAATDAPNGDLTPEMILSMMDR
Nature of the assay: co-IP; lysates of control and MYC-overexpressing 22Rv1 cells; anti-CTCF or anti-MYC antibody on protein A/G beads, rabbit IgG isotype control; IP binding buffer 5 mM Tris-HCl pH 7.4, 150 mM NaCl, 1 mM EDTA, 1% Triton X-100, 5% glycerol; overnight at 4 °C; Western blot. For orientation: In western blotting, separated proteins are transferred to a membrane and probed.

By UniProt entry, the sequences of proteins in these tests, tags left out.
UniProt P01106: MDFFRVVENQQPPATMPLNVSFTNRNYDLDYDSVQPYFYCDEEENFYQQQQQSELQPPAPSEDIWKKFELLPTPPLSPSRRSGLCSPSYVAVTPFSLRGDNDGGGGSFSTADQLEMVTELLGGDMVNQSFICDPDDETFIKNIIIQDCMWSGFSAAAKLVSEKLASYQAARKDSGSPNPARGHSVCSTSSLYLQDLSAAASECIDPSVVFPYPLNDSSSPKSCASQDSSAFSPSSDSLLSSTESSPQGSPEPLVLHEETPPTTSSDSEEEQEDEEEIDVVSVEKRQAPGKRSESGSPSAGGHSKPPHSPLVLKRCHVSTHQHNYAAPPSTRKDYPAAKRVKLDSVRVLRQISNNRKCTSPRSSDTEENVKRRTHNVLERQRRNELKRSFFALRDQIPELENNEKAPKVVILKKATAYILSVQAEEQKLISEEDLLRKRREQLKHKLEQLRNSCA

Assay [2] deals with T1, CTCF (human (endogenous in 22Rv1)). The experiment in a line: proximity ligation; Duolink in situ PLA in fixed, permeabilised 22Rv1 cells; mouse anti-MYC (9E10) and rabbit anti-CTCF (D31H2); confocal microscopy, red spots.
Assay [3] shares this target. Nature of the assay: co-IP; lysate of V16A cells; endogenous CTCF and MYC (Fig. S5e).
Another assay concerns the target T2, Flag-CTCF (UniProt P49711).
T2 sequence: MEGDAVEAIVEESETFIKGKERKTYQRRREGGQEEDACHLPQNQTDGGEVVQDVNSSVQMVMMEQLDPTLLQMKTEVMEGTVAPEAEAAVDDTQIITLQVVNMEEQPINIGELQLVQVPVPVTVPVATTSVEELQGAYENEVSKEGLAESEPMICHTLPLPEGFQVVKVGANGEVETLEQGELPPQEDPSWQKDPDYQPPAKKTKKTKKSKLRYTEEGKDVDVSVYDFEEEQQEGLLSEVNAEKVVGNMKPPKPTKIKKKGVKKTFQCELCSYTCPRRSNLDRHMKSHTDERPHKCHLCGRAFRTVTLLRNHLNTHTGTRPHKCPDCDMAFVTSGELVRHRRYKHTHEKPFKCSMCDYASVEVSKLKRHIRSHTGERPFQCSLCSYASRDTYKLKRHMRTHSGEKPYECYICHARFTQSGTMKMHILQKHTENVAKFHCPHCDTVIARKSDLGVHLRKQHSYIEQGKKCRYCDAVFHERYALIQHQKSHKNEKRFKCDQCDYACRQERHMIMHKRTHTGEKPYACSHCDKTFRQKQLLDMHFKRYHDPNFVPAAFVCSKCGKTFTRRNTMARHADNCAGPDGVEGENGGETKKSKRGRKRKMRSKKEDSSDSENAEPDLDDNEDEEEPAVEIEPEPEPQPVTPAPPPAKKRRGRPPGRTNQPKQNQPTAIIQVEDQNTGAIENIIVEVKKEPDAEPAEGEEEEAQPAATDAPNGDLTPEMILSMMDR
Nature of the assay: co-IP; 22Rv1 cells expressing GFP-MYC and Flag-CTCF; anti-Flag beads; input and IPed proteins blotted with anti-GFP and anti-Flag.

The next assay addresses GST-MYC (UniProt P01106). Nature of the assay: pull-down; GST or GST-MYC immobilised on glutathione beads; incubated with Flag-CTCF expressed in 22Rv1 cells (lysate) for 4 h at 4 °C; washed five times with cold PBS; Western blot with anti-Flag or anti-MAX; only the target purified.

No constants are given. Whether binding was seen depends on the method and setting. Binding seen in cells or lysates may run through a third protein. Some results given as binding are weak or reduced against the parent protein; the word gives no strength. For part of these data: Where a sequence is shown, tags or fusion partners need not be part of it.

For the molecule “MYC overexpressed from pLVX-MYC (from UniProt P01106 1-454)”, the binding entry in assay [1] is on record as “binds”.

As for MYC (from UniProt P01106 1-454), the binding result in assay [1], in assay [2] and in assay [3] was “binds” each time.

Turning to GFP-MYC (from UniProt P01106 1-454), in the assay with Flag-CTCF, the binding result was “binds”.

B1: Flag-CTCF (protein, UniProt P49711 1-727)
chain: MEGDAVEAIVEESETFIKGKERKTYQRRREGGQEEDACHLPQNQTDGGEVVQDVNSSVQMVMMEQLDPTLLQMKTEVMEGTVAPEAEAAVDDTQIITLQVVNMEEQPINIGELQLVQVPVPVTVPVATTSVEELQGAYENEVSKEGLAESEPMICHTLPLPEGFQVVKVGANGEVETLEQGELPPQEDPSWQKDPDYQPPAKKTKKTKKSKLRYTEEGKDVDVSVYDFEEEQQEGLLSEVNAEKVVGNMKPPKPTKIKKKGVKKTFQCELCSYTCPRRSNLDRHMKSHTDERPHKCHLCGRAFRTVTLLRNHLNTHTGTRPHKCPDCDMAFVTSGELVRHRRYKHTHEKPFKCSMCDYASVEVSKLKRHIRSHTGERPFQCSLCSYASRDTYKLKRHMRTHSGEKPYECYICHARFTQSGTMKMHILQKHTENVAKFHCPHCDTVIARKSDLGVHLRKQHSYIEQGKKCRYCDAVFHERYALIQHQKSHKNEKRFKCDQCDYACRQERHMIMHKRTHTGEKPYACSHCDKTFRQKQLLDMHFKRYHDPNFVPAAFVCSKCGKTFTRRNTMARHADNCAGPDGVEGENGGETKKSKRGRKRKMRSKKEDSSDSENAEPDLDDNEDEEEPAVEIEPEPEPQPVTPAPPPAKKRRGRPPGRTNQPKQNQPTAIIQVEDQNTGAIENIIVEVKKEPDAEPAEGEEEEAQPAATDAPNGDLTPEMILSMMDR
Regarding B1, the binding entry with GST-MYC was “binds”.
